# Measured values taken from paper doi:10.1101/436147.
# Chains of the proteins cited; added tags and fusions are not shown.
# UniProt Q17963: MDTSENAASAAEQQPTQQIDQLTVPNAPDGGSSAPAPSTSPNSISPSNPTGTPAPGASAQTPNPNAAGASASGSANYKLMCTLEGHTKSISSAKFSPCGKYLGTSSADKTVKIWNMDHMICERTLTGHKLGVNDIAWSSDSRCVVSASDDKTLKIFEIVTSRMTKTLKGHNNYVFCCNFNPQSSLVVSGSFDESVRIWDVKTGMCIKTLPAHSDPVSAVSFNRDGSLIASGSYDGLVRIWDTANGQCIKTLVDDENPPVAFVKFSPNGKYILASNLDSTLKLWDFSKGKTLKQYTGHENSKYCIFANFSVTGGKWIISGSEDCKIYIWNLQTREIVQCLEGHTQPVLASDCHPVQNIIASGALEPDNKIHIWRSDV
# No constants are given. Whether binding was seen depends on the method and setting. In cells and extracts the contact can be indirect. A yes stands for co-enrichment or nearness to the bait. Other partners may have been found. For some of these results: A no says only that the protein was not detected with the bait. For some of these results: Where a sequence is shown, tags or fusion partners need not be part of it.
# T1: CFP-1::GFP (C. elegans) (UniProt Q9XUE7)
# T1 sequence: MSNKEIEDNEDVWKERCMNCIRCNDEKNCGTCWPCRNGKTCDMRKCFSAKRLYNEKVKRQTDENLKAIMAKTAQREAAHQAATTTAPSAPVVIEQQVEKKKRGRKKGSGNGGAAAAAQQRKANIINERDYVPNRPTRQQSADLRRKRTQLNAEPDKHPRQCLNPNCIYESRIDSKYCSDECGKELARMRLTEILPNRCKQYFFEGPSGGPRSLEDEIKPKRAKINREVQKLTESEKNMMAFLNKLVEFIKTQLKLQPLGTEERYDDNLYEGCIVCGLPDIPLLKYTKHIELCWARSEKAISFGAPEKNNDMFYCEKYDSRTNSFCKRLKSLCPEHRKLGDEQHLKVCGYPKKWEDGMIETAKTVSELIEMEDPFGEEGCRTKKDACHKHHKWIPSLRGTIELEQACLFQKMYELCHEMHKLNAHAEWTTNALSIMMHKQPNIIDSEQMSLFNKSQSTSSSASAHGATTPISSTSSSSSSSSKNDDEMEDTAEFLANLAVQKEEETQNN
# B1: OGT-1 (protein, UniProt O18158 1-1151)
# chain: MEKPNYFQSYNKVIGATGEQLAPGAVPPHPVLAPSIAPGGVAGVSAANMANIMQTPGFANLVQQAIRTQLENQAAQQLAVNQQFQLNGATAVQQQLLLTPQQSLAQPIALAPQPTVVLNGVSETLKKVTELAHRQFQSGNYVEAEKYCNLVFQSDPNNLPTLLLLSAINFQTKNLEKSMQYSMLAIKVNNQCAEAYSNLGNYYKEKGQLQDALENYKLAVKLKPEFIDAYINLAAALVSGGDLEQAVTAYFNALQINPDLYCVRSDLGNLLKAMGRLEEAKVCYLKAIETQPQFAVAWSNLGCVFNSQGEIWLAIHHFEKAVTLDPNFLDAYINLGNVLKEARIFDRAVSAYLRALNLSGNHAVVHGNLACVYYEQGLIDLAIDTYKKAIDLQPHFPDAYCNLANALKEKGSVVEAEQMYMKALELCPTHADSQNNLANIKREQGKIEDATRLYLKALEIYPEFAAAHSNLASILQQQGKLNDAILHYKEAIRIAPTFADAYSNMGNTLKEMGDSSAAIACYNRAIQINPAFADAHSNLASIHKDAGNMAEAIQSYSTALKLKPDFPDAYCNLAHCHQIICDWNDYDKRVRKLVQIVEDQLCKKRLPSVHPHHSMLYPLSHAARIAIAAKHASLCFDKVHVQMLGKTPLIHADRFSVQNGQRLRIGYVSSDFGNHPTSHLMQSIPGMHDRSRVEVFCYALSVNDGTNFRSKLMNESEHFVDLSQIPCNGKAAEKIAQDGIHILINMNGYTKGARNEIFALRPAPIQVMWLGYPSTSGATFMDYIITDAVTSPLRLANAFTEKLAYMPHTFFIGDHAQMLRHLTDKVVVKDKETTERDSCLIMNTANMDPILAKSEIKEQVLDTEVVSGPNKELVRAEMVLPVLEVPTEPIKQMIMTGQMTMNVMEDMNVQNGLGQSQMHHKAATGEEIPNSVLLTSRAQYQLPDDAIVFCNFNQLYKIDPSTLDMWIKILENVPKSILWLLRFPYQGEEHIRKYCVERGLDPSRIVFSNVAAKEEHVRRGQLADVCLDTPLCNGHTTGMDILWTGTPMVTMPLESLASRVATSQLYALGVPELVAKTRQEYVSIAVRLGTDADHLANMRAKVWMARTSSTLFDVKQYCHDMEDLLGQMWKRYESGMPIDHITNNTETPHGL
# B2: SUMV-1 (protein, UniProt P46582 1-1024)
# chain: MKQTTRPPAQYIVAPGTRFRLVANEYDKNKYGQCNYASYRTLVRCKQIRSKEELAKHGGRCEEHVEFSKTLENNHKKEVMRCHAENDSKMQRRRFDPWIASNEYISDDDDYLQAAQTVPQRLPDVANDDILDNNSLRYAEYYTDKDILNIKMDLVQKDIDDLIEFKELVTSQAQKEHELLGNDEEEDYPTDMAQRRIFKASTKYSRNDYLTLTTIDPVFHQCCVGPDMDDSLVIVHTMHSILDKIDNFEPIDSEKQCNKPALHLSKFCFDHIILDRSQKMFDVCNACGLTAIGGVDPKCSFHIKSSAIAETTSCPCNRCVQPGEHASPKDEKNSITCYLNSSDDDEPTLGNLSRIESMVSPMQQFSNQSNTLTAPLPRRYQGPPAQVLRPPQMGPPPGINQVPYQPKANRTPPMTSQQLHEQQKLKMQEEEMMSQTCASDFRVRPIDASQFGGGKKKQRLPPRRSPSFGTSPNSYQFHQQSQKKMPSIISTAYNSSPGKMNFQGWKNQSTSSATRPLPQPRFPVHAARSQQPKMIPLEQTQDSIEDDIGPSPMFQGPEPSRRGVPYYKNAYRRTELPSRHAQHSPLTPSTSTSSSQLLAPPKSPQPGTSSQTFRSQASRLPIAPHRAIAAGLNPADVGTRPAYRSQMAGQRPGMTPSAQQGSPQLISPPRQGSMMPVAMNQSPQAVRRQTPVPPYRLMGPQRVTTSYTVVRSGSSSSVAGPSRSSVASGSQHTALDTVQHDPRLANINVRTFLSIGNRDLSTLTQDEIDLLMAGNSPEKGGRKAGAPGAKESSKAAGGAQKGTSAASTSVPEPTKSSESSVDPQSDVSFSNPSPAPEVIEKVAPAAMTITSNKRKIDETLASESTSSEATLIHDTTSSSSAETVSGEPPAKKSSDVSAPVPSPEKEKEKIDRPKTPKSSTKRTTPTPSGRTPRAAAIAANQAISHSKPNVPSASTSSSAASTDQENPLDLLAELSVAAAAEEQQQAIGSTSKNGGSTKKTQRKSPSRSSIGKKRENSEEYEEEL
# Molecular target: T1, CFP-1::GFP (C. elegans)
# Test: affinity purification with mass spectrometry
row,Molecule,binding
1,PIS-1 (C. elegans (endogenous in embryos)),no binding
2,UTX-1 (C. elegans (endogenous in embryos)),no binding
3,ATHP-1 (C. elegans (endogenous in embryos)),binds
4,SET-16 (C. elegans (endogenous in embryos)),no binding
5,SWD-2.1 (C. elegans (endogenous in embryos)),binds

# Molecular target: HA::WDR-5.1 (C. elegans) (UniProt Q17963)
# Test: affinity purification with mass spectrometry
row,Molecule,binding
1,B1,binds
2,B2,binds
